We go through 2 molecules from paper PMC8549421.

Protein sequences, listed by entry. Tags and fused reporters are not part of them.
UniProt P20649: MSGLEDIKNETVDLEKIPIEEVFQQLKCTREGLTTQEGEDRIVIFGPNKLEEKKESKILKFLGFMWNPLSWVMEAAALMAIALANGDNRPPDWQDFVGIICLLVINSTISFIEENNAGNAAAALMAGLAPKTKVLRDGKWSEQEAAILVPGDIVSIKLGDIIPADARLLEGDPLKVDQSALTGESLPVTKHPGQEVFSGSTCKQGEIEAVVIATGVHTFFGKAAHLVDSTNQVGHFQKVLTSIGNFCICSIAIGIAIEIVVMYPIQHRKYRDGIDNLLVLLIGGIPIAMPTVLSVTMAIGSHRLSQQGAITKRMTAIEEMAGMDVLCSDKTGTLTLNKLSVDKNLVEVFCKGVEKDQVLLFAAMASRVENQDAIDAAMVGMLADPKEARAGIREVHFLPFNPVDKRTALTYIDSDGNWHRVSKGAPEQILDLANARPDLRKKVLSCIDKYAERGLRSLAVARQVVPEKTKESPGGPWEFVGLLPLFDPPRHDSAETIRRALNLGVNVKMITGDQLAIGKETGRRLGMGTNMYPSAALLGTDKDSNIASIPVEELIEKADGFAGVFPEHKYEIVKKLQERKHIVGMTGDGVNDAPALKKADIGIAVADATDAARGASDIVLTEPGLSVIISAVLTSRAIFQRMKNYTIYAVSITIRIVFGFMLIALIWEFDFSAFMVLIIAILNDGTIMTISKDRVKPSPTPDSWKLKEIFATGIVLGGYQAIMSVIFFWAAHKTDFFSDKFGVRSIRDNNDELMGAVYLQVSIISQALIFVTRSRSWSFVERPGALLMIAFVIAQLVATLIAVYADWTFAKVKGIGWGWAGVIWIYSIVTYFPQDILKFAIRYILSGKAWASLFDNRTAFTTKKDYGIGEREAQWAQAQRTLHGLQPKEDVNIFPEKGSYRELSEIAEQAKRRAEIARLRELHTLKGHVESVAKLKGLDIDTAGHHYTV

These are yes or no findings as the source states them, for the method shown. In cells and extracts the contact can be indirect. Some binding calls cover weakened binding; strength is not graded here.

In assay [1] the target is GFP–AHA1 (Arabidopsis thaliana) (UniProt P20649). Nature of the assay: co-IP; extracts of 4-week-old 35S::GFP-AHA1 plants (10 mM HEPES pH 7.5, 100 mM NaCl, 1 mM EDTA, 10% glycerol, 0.1% Triton X-100); GFP-Trap; blot with anti-TMK1 or anti-TMK4 antibodies.
Assay [2] concerns the target AHA1–GFP (Arabidopsis thaliana) (UniProt P20649). The assay can be described thus: FRET or BRET; sensitized-emission FRET on the plasma membrane of single protoplasts held in a microfluidics chip; 100 nM NAA or mock buffer applied at 25 s; 5 s per frame.

B1: TMK1 (protein, UniProt P43298 24-942)
chain: DSDGDLSAMLSLKKSLNPPSSFGWSDPDPCKWTHIVCTGTKRVTRIQIGHSGLQGTLSPDLRNLSELERLELQWNNISGPVPSLSGLASLQVLMLSNNNFDSIPSDVFQGLTSLQSVEIDNNPFKSWEIPESLRNASALQNFSANSANVSGSLPGFLGPDEFPGLSILHLAFNNLEGELPMSLAGSQVQSLWLNGQKLTGDITVLQNMTGLKEVWLHSNKFSGPLPDFSGLKELESLSLRDNSFTGPVPASLLSLESLKVVNLTNNHLQGPVPVFKSSVSVDLDKDSNSFCLSSPGECDPRVKSLLLIASSFDYPPRLAESWKGNDPCTNWIGIACSNGNITVISLEKMELTGTISPEFGAIKSLQRIILGINNLTGMIPQELTTLPNLKTLDVSSNKLFGKVPGFRSNVVVNTNGNPDIGKDKSSLSSPGSSSPSGGSGSGINGDKDRRGMKSSTFIGIIVGSVLGGLLSIFLIGLLVFCWYKKRQKRFSGSESSNAVVVHPRHSGSDNESVKITVAGSSVSVGGISDTYTLPGTSEVGDNIQMVEAGNMLISIQVLRSVTNNFSSDNILGSGGFGVVYKGELHDGTKIAVKRMENGVIAGKGFAEFKSEIAVLTKVRHRHLVTLLGYCLDGNEKLLVYEYMPQGTLSRHLFEWSEEGLKPLLWKQRLTLALDVARGVEYLHGLAHQSFIHRDLKPSNILLGDDMRAKVADFGLVRLAPEGKGSIETRIAGTFGYLAPEYAVTGRVTTKVDVYSFGVILMELITGRKSLDESQPEESIHLVSWFKRMYINKEASFKKAIDTTIDLDEETLASVHTVAELAGHCCAREPYQRPDMGHAVNILSSLVELWKPSDQNPEDIYGIDLDMSLPQALKKWQAYEGRSDLESSTSSLLPSLDNTQMSIPTRPYGFAESFTSVDGR
In the case of B1, the binding entry in assay [1] is given as “binds”.

B2: TMK1–mCherry (protein, UniProt P43298 24-942)
chain: DSDGDLSAMLSLKKSLNPPSSFGWSDPDPCKWTHIVCTGTKRVTRIQIGHSGLQGTLSPDLRNLSELERLELQWNNISGPVPSLSGLASLQVLMLSNNNFDSIPSDVFQGLTSLQSVEIDNNPFKSWEIPESLRNASALQNFSANSANVSGSLPGFLGPDEFPGLSILHLAFNNLEGELPMSLAGSQVQSLWLNGQKLTGDITVLQNMTGLKEVWLHSNKFSGPLPDFSGLKELESLSLRDNSFTGPVPASLLSLESLKVVNLTNNHLQGPVPVFKSSVSVDLDKDSNSFCLSSPGECDPRVKSLLLIASSFDYPPRLAESWKGNDPCTNWIGIACSNGNITVISLEKMELTGTISPEFGAIKSLQRIILGINNLTGMIPQELTTLPNLKTLDVSSNKLFGKVPGFRSNVVVNTNGNPDIGKDKSSLSSPGSSSPSGGSGSGINGDKDRRGMKSSTFIGIIVGSVLGGLLSIFLIGLLVFCWYKKRQKRFSGSESSNAVVVHPRHSGSDNESVKITVAGSSVSVGGISDTYTLPGTSEVGDNIQMVEAGNMLISIQVLRSVTNNFSSDNILGSGGFGVVYKGELHDGTKIAVKRMENGVIAGKGFAEFKSEIAVLTKVRHRHLVTLLGYCLDGNEKLLVYEYMPQGTLSRHLFEWSEEGLKPLLWKQRLTLALDVARGVEYLHGLAHQSFIHRDLKPSNILLGDDMRAKVADFGLVRLAPEGKGSIETRIAGTFGYLAPEYAVTGRVTTKVDVYSFGVILMELITGRKSLDESQPEESIHLVSWFKRMYINKEASFKKAIDTTIDLDEETLASVHTVAELAGHCCAREPYQRPDMGHAVNILSSLVELWKPSDQNPEDIYGIDLDMSLPQALKKWQAYEGRSDLESSTSSLLPSLDNTQMSIPTRPYGFAESFTSVDGR
Take B2: the binding entry in assay [2] is “binds”.
